# Measurements from patent US20160041182A1 (Janssen / Centocor, published 2016).
# Results are given in words; binding and its absence hold for the method and conditions named. Some entries that bind do so weakly or less than the wild type.
# T1: mouse IL-17A (mouse, UniProt Q62386 26-158, limits assumed)
# T1 construct: In SPR it was injected in solution, and no biotinylation is mentioned there; also called mIL-17A; mIL17A
# T1 sequence (looked up): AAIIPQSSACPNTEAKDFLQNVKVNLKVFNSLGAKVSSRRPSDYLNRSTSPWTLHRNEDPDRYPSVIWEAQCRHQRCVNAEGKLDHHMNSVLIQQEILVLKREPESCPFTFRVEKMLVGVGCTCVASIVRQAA
# B1: TP1KR9P62-D3 (designed binder)
# chain: MLPAPKNLVVSRVTEDSARLSWTAPDAAFDSFAIEYFEDWWSGEAIVLTVPGSERSYDLTLKPGTEYSVSIRGVKGGYPSSPLSAIFTT
# notes: also called TCL14-His fusion protein
# Target: T1, mouse IL-17A
# Test: SPR (ProteOn XPR-36)
binder,measurement,value
B1,binding,binds
